# In PubChem BioAssay AID540256 (National Center for Advancing Translational Sciences (NCATS), 2011):
# Screen size: about 300,000 compounds; about 3,700 (1.2%) were called active. The inconclusive results got no clear call from the source; some entries with a clear call stand among them for comparison. The call rests on the fitted dose curve; tested in HEK293 cells. Where the call is inconclusive, the potency comes from a doubtful curve fit.
# Experiment: qHTS for Inhibitors of binding or entry into cells for Lassa Virus; further: nearly all actives have a fitted effect of over 50% in size
# Conditions: Lassa virus pseudotype entry inhibition, cell reporter; series mostly up to 37.9 µM
# Potency means the concentration at half of the fitted maximal effect.
row,SMILES,Potency
1,CCOc1ccc(OCC)c(-c2c(=O)n(OCc3ccc(Cl)cc3)c3ccccc3[n+]2[O-])c1,"inconclusive: 23.1 µM [inhibitor, single point]"
2,CCN(CC)CCCN1C(=O)C2=C(C1=O)C1N(C)c3ccccc3[C@@]13C[C@@H](CO)N(C(=O)CCC(=O)OC)C3=N2 (some centres undefined),"inconclusive: 0.006 µM [activator, full curve, poor fit]"
3,Cc1ccccc1NC(=O)CN(C)S(=O)(=O)c1cccs1,"inconclusive: 35.5 µM [inhibitor, single point]"
4,COc1ccc(CCNC(=O)COc2ccc(S(=O)(=O)NC(C)C)cc2Cl)cc1OC,"inconclusive: 4.61 µM [inhibitor, full curve, poor fit]"
5,CCn1c(SCc2ccc(F)cc2Cl)nc(=O)c2c(C(=O)OC)cc(C3CC3)nc21,"inconclusive: 15.8 µM [inhibitor, single point]"
6,Cc1ccc(C(=O)CC2C(=O)N(c3ccccc3)C(=S)N2c2ccccc2)cc1 (centres undefined),"inconclusive: 35.5 µM [inhibitor, single point]"
7,COC(=O)c1c(C)oc2ccc(N(C(=O)c3ccncc3)S(=O)(=O)c3ccc4ccccc4c3)cc12,"inconclusive: 35.5 µM [inhibitor, single point]"
8,Cc1ccc(S(=O)(=O)CCC(=O)OCC(=O)N(C)c2ccccc2)cc1,inactive
9,Cc1ccc(C)c(S(=O)(=O)N2CCN(C(=O)c3ccc(OCc4c(C)noc4C)cc3)CC2)c1,"inconclusive: 20 µM [inhibitor, single point]"
10,CC(=O)Nc1ccc(NC(=O)C2CC(=O)N(Cc3ccccc3)C2)cc1 (centres undefined),inactive
11,Cc1cc(C)n(CC(=O)N2CCCC(N3CCN(c4cccc(C(F)(F)F)c4)CC3)C2)n1 (centres undefined),"inconclusive: 1 µM [inhibitor, single point]"
12,CC(=O)c1ccc(-c2ccc(C(=O)N3CCCc4ccccc43)o2)cc1,"inconclusive: 22.4 µM [inhibitor, single point]"
13,CCC(=O)N1CCN(c2ccccc2NC(=O)c2ccc([N+](=O)[O-])o2)CC1,inactive
14,CC(C)CCCCCCCCCCCCC(=O)NCC(=O)NC1C(C)OC(Nc2ncnc3nc[nH]c23)C(O)C1O (centres undefined),active: 0.0794 µM
15,COc1ccc(CNc2oc(/C=C/c3cccc(OC)c3)nc2C#N)cc1,"inconclusive: 15.8 µM [inhibitor, single point]"
16,COC(=O)c1c(-c2ccc(OC)c(OC)c2)csc1N,inactive
17,Cc1ccccc1CNC(=O)Nc1cccs1,"inconclusive: 15.8 µM [activator, single point]"
18,CCCOc1ccc(N2C(=O)CC(SC(=NC)Nc3ccc(F)cc3)C2=O)cc1 (centres undefined),"inconclusive: 0.0891 µM [activator, full curve, poor fit]"
19,CCc1nnc(NC(=O)CS(=O)(=O)Cc2ccccc2)s1,inactive
20,NC(=O)CC1C(=O)N(c2ccc(F)cc2)C(=O)N1NC(=O)CCc1ccccc1 (centres undefined),"inconclusive: 7.08 µM [activator, partial curve, poor fit]"
21,COCCCNC(=O)C(=O)NC1CCCCCC1,"inconclusive: 1 µM [activator, partial curve, poor fit]"
22,COc1ccc(CNC(=O)c2ccc3c(c2)N(Cc2ccccc2C)C(=O)c2ccccc2S3=O)cc1 (centres undefined),inactive

# Some of these compounds in order of formula weight, largest number first.
row,SMILES,Potency
2,CCN(CC)CCCN1C(=O)C2=C(C1=O)C1N(C)c3ccccc3[C@@]13C[C@@H](CO)N(C(=O)CCC(=O)OC)C3=N2 (some centres undefined),"inconclusive: 0.006 µM [activator, full curve, poor fit]"
1,CCOc1ccc(OCC)c(-c2c(=O)n(OCc3ccc(Cl)cc3)c3ccccc3[n+]2[O-])c1,"inconclusive: 23.1 µM [inhibitor, single point]"
16,COC(=O)c1c(-c2ccc(OC)c(OC)c2)csc1N,inactive

# More results follow:

row,SMILES,Potency
1,COC(=O)C1=C(C)N=c2s/c(=C/c3ccoc3)c(=O)n2C1c1ccccc1 (centres undefined),"inconclusive: 1.3 µM [inhibitor, full curve, poor fit]"
2,Cc1ccc(O)c(NC(=O)C2CC(c3cccc(Br)c3)=NO2)c1 (centres undefined),"inconclusive: 22.4 µM [inhibitor, partial curve, poor fit]"
3,CCCCCn1c(=N)c(S(=O)(=O)c2ccc(Br)cc2)cc2c(=O)n3cccc(C)c3nc21,"inconclusive: 10 µM [activator, single point]"
4,COc1ccccc1-c1nc2cc3ccccc3cc2nc1-c1ccccc1OC,"inconclusive: 20 µM [inhibitor, partial curve, poor fit]"
5,Cc1ccc(C(=O)NCCNC(=O)COc2ccc(Cl)cc2)cn1,"inconclusive: 11.2 µM [activator, single point]"
6,CC(=O)Nc1ccc(S(=O)(=O)NCc2cccn2Cc2cccc(C)c2)cc1,"inconclusive: 1.41 µM [inhibitor, partial curve, poor fit]"
7,CCOc1ccc(CN2C(=O)c3ccccc3Sc3ccc(C(=O)OC)cc32)cc1,"inconclusive: 6.31 µM [activator, partial curve, poor fit]"
8,Cc1c(C(=O)OCC2CCCO2)[nH]c2c1C(=O)CC(c1ccco1)C2 (centres undefined),"inconclusive: 3.55 µM [inhibitor, full curve]"
9,COc1ccc(C(OC(=O)c2ccco2)C(=O)NC2CCCC2)cc1 (centres undefined),inactive
10,Cc1cccc(C)c1NC(=O)C(C)c1ccc(-c2ccccc2)c(F)c1 (centres undefined),"inconclusive: 14.1 µM [inhibitor, single point]"
11,CCS(=O)(=O)c1ccc(OC)c(N=Nc2ccc(O)c3ncccc23)c1,"inconclusive: 35.5 µM [inhibitor, single point]"
12,O=C(c1ccc2c(c1)CCN2S(=O)(=O)c1ccc(Cl)cc1)N1CCN(c2ccccc2)CC1,inactive
13,CCOC(=O)c1c(C)oc2c1c(C(c1ccncc1)N1CCOCC1)c(O)c1ccccc12 (centres undefined),"inconclusive: 22.4 µM [inhibitor, single point]"
14,O=C1CN(C(=O)CSc2nc(-c3ccccc3)cs2)c2ccccc2N1,"inconclusive: 20.6 µM [inhibitor, single point]"
15,COc1ccc(OC)c(CNC(=O)c2c(C)oc3ncn(C)c(=O)c23)c1,inactive
16,COc1ccc(/C=C/C(=O)C2CC2)cc1COc1cccc(C)c1C,active: 7.08 µM
17,Cc1cc(C)n(/C(=C\N(C)C)C(=O)c2ccc(Cl)cc2)n1,inactive
18,Cc1cc(C)c(S(=O)(=O)NCC23C=CC(O2)C2C(=O)N(c4ccccc4)C(=O)C23)c(C)c1 (centres undefined),"inconclusive: 23.1 µM [inhibitor, single point]"
19,CC1=CC[C@@H](C)O[C@@]2(C1)C(=O)N(Cc1ccc(Br)cc1)c1ccccc12,"inconclusive: 0.0335 µM [inhibitor, full curve, poor fit]"
20,O=C(Nc1ccc2nc3ccccc3nc2c1)c1ccccc1,active: 11.2 µM
21,COc1ccc(/C(C)=N\Nc2nc(-c3ccc(Cl)cc3)cc(C(F)(F)F)n2)cc1OC,inactive
22,CCOc1ccc(NC(=O)CN(C)C(=O)c2ccccc2OCCOc2ccccc2)cc1OCC,"inconclusive: 12.6 µM [inhibitor, partial curve, poor fit]"

row,SMILES,Potency
1,CCOc1ccc(CC(=O)NCCc2csc(-c3ccc(Cl)cc3)n2)cc1,inactive
2,CC(C)c1cc(NC(=O)c2ccccc2)cc(C(C)C)c1O,"inconclusive: 25.1 µM [inhibitor, single point]"
3,Cc1ccc([C@H]2C[C@@H](O)[C@H](n3cc(-c4ccc(F)cc4)nn3)CN2C(=O)c2cccs2)cc1,"inconclusive: 0.25 µM [inhibitor, full curve, poor fit]"
4,CSc1ccc(CN2CCN(C(=O)c3ccncc3)CC2)cc1,"inconclusive: 10 µM [inhibitor, partial curve, poor fit]"
5,O=C1ON=C(c2ccccc2)/C1=C/c1ccc(-c2ccccc2[N+](=O)[O-])o1,"inconclusive: 35.5 µM [inhibitor, single point]"
6,Cc1cc(N2CCCCC2)n2nc(C)c(-c3ccccc3)c2n1,"inconclusive: 25.1 µM [inhibitor, partial curve, poor fit]"
7,CCOc1ccc(-n2c(C)cc(/C=N\NC(=O)CC(=O)NC3CCCCC3)c2C)cc1,"inconclusive: 31.6 µM [inhibitor, single point]"
8,N/C(=N\c1nc2ccccc2o1)NC(=O)c1cccc(Br)c1,inactive
9,CCOC(=O)c1[nH]c(C)c(CCC(=O)N2CCN(c3cccc(C)c3C)CC2)c1C,"inconclusive: 11.2 µM [inhibitor, single point]"
10,CN1CCN(c2ccc(S(=O)(=O)N3CCCCC3)cc2NC(=O)c2ccc3ccccc3c2)CC1,inactive
11,Cc1ccc2nc(-c3ccncc3)c(Nc3ccc(C(C)C)cc3)n2c1,inactive
12,CCCCCCCCOC(=O)C1=C(C)Nc2nnnn2C1c1cccs1 (centres undefined),"inconclusive: 25.1 µM [inhibitor, single point]"
13,CCOc1ccc2nc(C)cc(Nc3ccc4c(c3)OCCO4)c2c1,"inconclusive: 35.5 µM [inhibitor, single point]"
14,CC(C)(C)OC(=O)N1CCC(c2c(C(=O)N3CCN(c4ccccn4)CC3)cnn2-c2ccccc2Cl)CC1,"inconclusive: 1.41 µM [inhibitor, partial curve, poor fit]"
15,Cc1ccc(N2C(=O)/C(=C\c3ccco3)SC2=S)cc1,inactive
16,COc1ccc(/C=C/C(=O)N(CC(C)C)CC(C)C)cc1Br,"inconclusive: 23.1 µM [inhibitor, single point]"
17,CN(Cc1ccccc1)C(=O)c1cccc(NC(=O)c2nsc3ccccc23)c1,"inconclusive: 6.31 µM [activator, partial curve, poor fit]"
18,O=C(Nc1ccccc1N1CCCCC1)c1ccc(-c2ccc(Cl)cc2)o1,"inconclusive: 1 µM [inhibitor, full curve, poor fit]"
19,COc1ccc(OCCC(=O)OCC(=O)NC(=O)NC(C)(C)C)cc1,"inconclusive: 11.2 µM [activator, single point]"
20,COC(=O)c1ccc(COc2ccc(C(=O)c3ccccc3)cc2)o1,inactive
